Binding data for one molecule are collected here from paper PMC3120833.

Chains of the proteins cited; added tags and fusions are not shown.
UniProt Q93009: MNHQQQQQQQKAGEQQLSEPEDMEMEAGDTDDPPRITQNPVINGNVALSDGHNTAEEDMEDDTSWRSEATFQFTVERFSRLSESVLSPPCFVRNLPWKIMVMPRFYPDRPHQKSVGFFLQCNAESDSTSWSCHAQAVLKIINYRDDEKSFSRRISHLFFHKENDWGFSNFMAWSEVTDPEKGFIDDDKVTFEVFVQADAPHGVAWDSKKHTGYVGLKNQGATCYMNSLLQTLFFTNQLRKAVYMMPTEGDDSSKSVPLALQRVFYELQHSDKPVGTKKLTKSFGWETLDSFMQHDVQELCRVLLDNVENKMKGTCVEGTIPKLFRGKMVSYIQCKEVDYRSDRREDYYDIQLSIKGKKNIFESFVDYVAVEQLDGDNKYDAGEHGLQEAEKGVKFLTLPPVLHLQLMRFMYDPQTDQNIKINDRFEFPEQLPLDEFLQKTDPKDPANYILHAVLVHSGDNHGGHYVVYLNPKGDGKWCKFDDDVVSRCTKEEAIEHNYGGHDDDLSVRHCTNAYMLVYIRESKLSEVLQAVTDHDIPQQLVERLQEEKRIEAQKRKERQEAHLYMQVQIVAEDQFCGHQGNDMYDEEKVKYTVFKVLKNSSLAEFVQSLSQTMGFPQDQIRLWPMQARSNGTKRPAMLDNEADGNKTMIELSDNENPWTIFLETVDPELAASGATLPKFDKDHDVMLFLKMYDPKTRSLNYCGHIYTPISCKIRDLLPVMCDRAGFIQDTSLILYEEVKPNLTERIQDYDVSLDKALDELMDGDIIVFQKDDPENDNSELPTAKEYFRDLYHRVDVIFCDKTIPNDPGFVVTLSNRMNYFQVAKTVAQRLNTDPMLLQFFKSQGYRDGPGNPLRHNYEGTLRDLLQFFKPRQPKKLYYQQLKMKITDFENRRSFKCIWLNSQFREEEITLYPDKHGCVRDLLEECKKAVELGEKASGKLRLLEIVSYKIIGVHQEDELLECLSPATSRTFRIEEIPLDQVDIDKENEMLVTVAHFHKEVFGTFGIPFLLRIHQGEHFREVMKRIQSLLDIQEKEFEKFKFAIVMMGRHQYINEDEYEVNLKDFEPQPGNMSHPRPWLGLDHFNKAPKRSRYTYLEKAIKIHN

These are yes or no findings as the source states them, for the method shown. Binding seen in cells or lysates may run through a third protein. Some entries that bind do so weakly or less than the wild type.

This experiment addresses herpesvirus-associated ubiquitin-specific protease (HAUSP), endogenous in HEK293 cells (human (endogenous in HEK293)) (UniProt Q93009). As to the kind of experiment: co-IP; HEK293 cells harvested and immunoprecipitated with anti-ING1 or anti-HAUSP, controls mouse anti-GST and rabbit pre-immune serum; blotted for HAUSP (USP7) or ING1.

B1: ING1, endogenous in HEK293 cells (protein, UniProt Q9UK53-2 1-279)
chain: MLSPANGEQLHLVNYVEDYLDSIESLPFDLQRNVSLMREIDAKYQEILKELDECYERFSRETDGAQKRRMLHCVQRALIRSQELGDEKIQIVSQMVELVENRTRQVDSHVELFEAQQELGDTAGNSGKAGADRPKGEAAAQADKPNSKRSRRQRNNENRENASSNHDHDDGASGTPKEKKAKTSKKKKRSKAKAEREASPADLPIDPNEPTYCLCNQVSYGEMIGCDNDECPIEWFHFSCVGLNHKPKGKWYCPKCRGENEKTMDKALEKSKKERAYNR
Consider B1, for which the binding entry was “binds”.
